No constants are given. Whether binding was seen depends on the method and setting. Some binding calls cover weakened binding; strength is not graded here.
Columns and labels:
… (SEQ ID NO: 2) peptide [1] = molecular target: T1, … (SEQ ID NO: 2) peptide; assay: T7 phage clone binding to microtiter wells coated with … peptide; pfu recovered
T1 sequence (peptide, cyclized (synthetic peptide, cyclized and purified by HPLC)): CPGPEGAGC

… (SEQ ID NO: 2) peptide [2] = molecular target: T1, … (SEQ ID NO: 2) peptide; assay: phage (10^8 pfu) binding to microtiter wells coated with … peptide

In the case of FMARASGCPLVLRCACDCHTGNVLGGQDCNCS [clone #47, phage displaying an aminopeptidase P cDNA fragment], the binding (… (SEQ ID NO: 2) peptide [1]) is reported as “binds” and the binding (… (SEQ ID NO: 2) peptide [2]) is reported as “binds”.

Reference: patent US7666391B2, “Breast homing peptides and methods of identifying same using aminopeptidase P” (Burnham Institute for Medical Research, priority 2001, dated 2010)
